{"source": "patent US10927100B2", "about": "“Degradable imidazolium oligomer and polymer for antimicrobial applications” (AGENCY FOR SCIENCE, TECHNOLOGY AND RESEARCH, priority 2017, dated 2021)", "system": "E. coli", "test": "Time kill kinetics", "format": "cell-based, Escherichia coli", "details": "62 μg/ml, within two minutes", "note": "Some of these results come from one statement about several compounds together. At least one compound was matched to its structure with a doubt left.", "data": [{"compound": "CCCCCCCCn1cc[n+](Cc2ccc(Cn3cc[n+](Cc4ccc(C[n+]5ccn(Cc6ccccc6C[n+]6ccn(Cc7ccc(Cn8cc[n+](Cc9ccc(Cn%10cc[n+](CCCCCCCC)c%10)cc9)c8)cc7)c6)c5)cc4)c3)cc2)c1.[Br-].[Br-].[Br-].[Br-].[Cl-].[Cl-]", "note": "[IBN-C8]", "values": [{"measurement": "killing efficiency", "value": "More than 99%"}]}]}
